# Values from PubChem BioAssay AID1159578 (Peter MacCallum Cancer Centre, 2015).
# Test: 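Genome-wide hunt for genes controlling movement of lymphatic endothelial cells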 (primary screen)
# Cell system: human lymphatic endothelial cells
# Knock-down reagent: siRNA pool against human genes, 40 nM
# Timing: 48 h after transfection
# Measured: 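High-content imaging of dye-stained cells in a scratch assay measures filled wound area and nuclei per well; duplicate means given as ratio to mock and robust z-score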
# Reading the numbers: migration robust z-score: higher = faster migration into the scratch; nuclei per well: higher = more cells in the well
# Active means: 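Pools averaging fewer than 3300 nuclei are never called; remaining pools count as changed when migration robust z lies outside -2 to 2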
# Calls: active = migration changed; inactive = no migration change, or too few cells
# In all, the deposit lists about 18,000 reagents; this is an unselected part. About 1,030 of all reagents (5.7%) count as active. 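Inactive calls also include pools with fewer than 3300 nuclei, whose migration was not assessed.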 Raw values are not corrected between plates. Unmarked entries are inactive. Further read-outs or replicates are left out here.
Gene,migration robust z-score,migration class with cell-count check,"nuclei per well, duplicate mean"
PEX5 (GeneID 5830),0.68,migration z between -2 and 2; enough cells,5668
NEIL1 (GeneID 79661),-0.38,migration z between -2 and 2; enough cells,7374
ATXN7L1 (GeneID 222255),0.83,migration z between -2 and 2; enough cells,7065
PPFIA1 (GeneID 8500),0.2,migration z between -2 and 2; enough cells,4567
CBY1 (GeneID 25776),1.3,migration z between -2 and 2; enough cells,6618
AP2S1 (GeneID 1175),-0.02,migration z between -2 and 2; enough cells,6082
SSBP2 (GeneID 23635),-2.93,under 3300 nuclei; migration not judged,2500
NTN3 (GeneID 4917),-1.97,migration z between -2 and 2; enough cells,4650
NUDCD1 (GeneID 84955),0.76,migration z between -2 and 2; enough cells,6650
THRAP3 (GeneID 9967),-0.13,migration z between -2 and 2; enough cells,6752
TAF4B (GeneID 6875),-0.26,migration z between -2 and 2; enough cells,5397
SDR39U1 (GeneID 56948),0.88,migration z between -2 and 2; enough cells,7344
CNDP1 (GeneID 84735),-0.8,migration z between -2 and 2; enough cells,5505
HSD17B12 (GeneID 51144),0.12,migration z between -2 and 2; enough cells,6596
TMEM255A (GeneID 55026),-2.73 (active),migration z below -2; enough cells,5991
HTRA4 (GeneID 203100),0.39,migration z between -2 and 2; enough cells,5170
RTL8B (GeneID 441518),3.77 (active),migration z above 2; enough cells,7167
TRAT1 (GeneID 50852),-0.82,migration z between -2 and 2; enough cells,5040
LENG9 (GeneID 94059),-0.56,migration z between -2 and 2; enough cells,5639
NUDT1 (GeneID 4521),-0.86,migration z between -2 and 2; enough cells,5732
PPP1R12A (GeneID 4659),-1.53,migration z between -2 and 2; enough cells,5176
ACY1 (GeneID 95),0.36,migration z between -2 and 2; enough cells,3460
EIF4G1 (GeneID 1981),0.7,migration z between -2 and 2; enough cells,5410
KLF17 (GeneID 128209),-0.36,migration z between -2 and 2; enough cells,6719
DHRS2 (GeneID 10202),0.52,migration z between -2 and 2; enough cells,5232
MPPED1 (GeneID 758),2.17 (active),migration z above 2; enough cells,5837
TMEM205 (GeneID 374882),-0.26,migration z between -2 and 2; enough cells,6045
HMGN4 (GeneID 10473),-2.06 (active),migration z below -2; enough cells,3300
RABGGTA (GeneID 5875),0.41,migration z between -2 and 2; enough cells,6006
PRRT2 (GeneID 112476),0.78,migration z between -2 and 2; enough cells,6726
RSRC1 (GeneID 51319),-0.6,under 3300 nuclei; migration not judged,2830
DKC1 (GeneID 1736),-1.79,migration z between -2 and 2; enough cells,3770
CNPPD1 (GeneID 27013),1.49,migration z between -2 and 2; enough cells,7027
CASKIN2 (GeneID 57513),0.96,migration z between -2 and 2; enough cells,6026
DHRS9 (GeneID 10170),-0.29,migration z between -2 and 2; enough cells,4846
DEFB106A (GeneID 245909),-1.51,migration z between -2 and 2; enough cells,6051
TSPAN16 (GeneID 26526),-0.55,migration z between -2 and 2; enough cells,5496
TMEM231 (GeneID 79583),-0.2,migration z between -2 and 2; enough cells,5754
LCMT1 (GeneID 51451),0.54,migration z between -2 and 2; enough cells,5782

3 entries already listed, arranged by “nuclei per well, duplicate mean”, ascending:
Gene,migration robust z-score,migration class with cell-count check,"nuclei per well, duplicate mean"
NTN3 (GeneID 4917),-1.97,migration z between -2 and 2; enough cells,4650
NUDCD1 (GeneID 84955),0.76,migration z between -2 and 2; enough cells,6650
THRAP3 (GeneID 9967),-0.13,migration z between -2 and 2; enough cells,6752
